Values of other authors, collected in patent publication US20200397763A1, “PARENTERAL FORMULATION MATERIALS AND METHODS FOR 40-O-CYCLIC HYDROCARBON ESTERS AND RELATED STRUCTURES” (Biotronik AG, priority 2018, published 2020).
At least one read-out could not be matched to a standard name with certainty.

Settings: propylene glycol, glycerin and polyethylene glycol; cited from earlier work

For CO[C@H]1C[C@@H]2CC[C@@H](C)[C@@](O)(O2)C(=O)C(=O)N2CCCC[C@H]2C(=O)O[C@H]([C@H](C)C[C@@H]2CC[C@@H](O)[C@H](OC)C2)CC(=O)[C@H](C)/C=C(\C)[C@@H](O)[C@@H](OC)C(=O)[C@H](C)C[C@H](C)/C=C/C=C/C=C/1C [Sirolimus, rapamycin], which “solubility in commonly used solubilizers” value is on record?
Its value is “only slightly soluble”.
